Counter-ions that a name gives are not always drawn. Screen size: about 5,300 compounds; about 130 (2.5%) showed an effect of 50% or more. This is one part of the list.

The assay deals with M. mycetomatis strain mm55. The settings on record: primary screen, metabolic activity vs growth control; 96 h, 2 µM; inhibitor.
Take `CCCCCCCCCCCCCCCC(=O)OC[C@@H](NC(=O)C(Cl)Cl)[C@H](O)c1ccc([N+](=O)[O-])cc1` [ONC0000763, chloramphenicol palmitate]: the “% viability” value came out at 71.55%.
With `CC(C)n1nc(-c2ccc3oc(N)nc3c2)c2c(N)ncnc21` [ONC0005031, ink 128 mln0128] the figure was 118.6%; with `CN1C[C@@H]2C[C@H]1CN2c1cc2c(cc1F)c(=O)c(C(=O)O)cn2C1CC1` [ONC0004469, danofloxacin mesylate], 127%; with `CC(C)c1ccc(-c2cc(=O)c3ccccc3o2)cc1` [ONC0001399, mn64], 92.86%.
As to `CC(=O)Nc1nc2c(Oc3cc(-c4ccc(C(F)(F)F)cc4)ncn3)cccc2s1` [ONC0005152, amg517], the “% viability” value came out at 112.5%.
For the molecule `O=C(NCC(=O)N1CC[C@H](N[C@H]2CC[C@@](O)(c3ccc(-c4ncccn4)cn3)CC2)C1)c1cccc(C(F)(F)F)c1` [ONC0000949, pf4136309], the “% viability” value is recorded as 65.66%.
With `Oc1ccc(OC2CCCCO2)cc1` (centres unmarked) [ONC0004709, deoxyarbutin] the figure was 107.9%.
For `CC(C)(C)c1onc(O)c1CC(N)C(=O)O` (centres unmarked) [ONC0000802, atpa], the “% viability” value worked out at 76.03%.
With `O=C(O)CC(O)(CC(=O)O)C(=O)O` [ONC0005429, citricacid] the figure was 123%.
Regarding `COC(=O)C1=C(C)NC(C)=C(C(=O)NCCCN2CCC(c3ccccc3)(c3ccccc3)CC2)C1c1ccc([N+](=O)[O-])cc1` (centres unmarked) [ONC0003562, snap5089], the “% viability” value came out at 140.9%.
For `C[C@]12CC/C(=N\OCCN)C[C@@H]1C(=O)C[C@@H]1[C@@H]2CC[C@]2(C)C(=O)CC[C@@H]12` [ONC0001347, istaroxime hydrochloride] the value was 80.9%; for `COc1ccc(C(C)(C)C)cc1CN[C@H]1C2CCN(CC2)[C@H]1C(c1ccccc1)c1ccccc1` [ONC0000986, maropitant], 66.63%; for `COc1cc(O)c(C(=O)c2ccccc2)cc1S(=O)(=O)O` [ONC0004165, sulisobenzone], 72.74%.
For `Nc1cccc2c1C(=O)N(C1CCC(=O)NC1=O)C2=O` (centres unmarked) [ONC0004843, pomalidomide] the value was 119.6%; for `CC(C)=CCC[C@]1(C)C=Cc2c(O)c3c(c(CC=C(C)C)c2O1)O[C@]12C(=C[C@@H]4C[C@H]1C(C)(C)O[C@@]2(C/C=C(/C)C(=O)O)C4=O)C3=O` [ONC0002067, gambogic acid], 76.73%.
In the case of `O=C1Nc2ccccc2/C1=C1/Nc2ccccc2C1=O` [ONC0004979, indirubin], the “% viability” value is recorded as 137.7%.
For `N=C(N)NC(=O)Cc1c(Cl)cccc1Cl` [ONC0003946, guanfacine hydrochloride] the value was 101.8%.
Take `OCC(O)COc1ccc(Cl)cc1` (centres unmarked) [ONC0002159, chlorphenesin]: the “% viability” value is 67.41%.
In the case of `Cc1ccc(CC2(O)CCN(CCOc3ccc(O)cc3)CC2)cc1` [ONC0003038, co101244], the “% viability” value amounted to 108.4%.
As to `O=C(O)C(O)Cc1ccc(O)c(O)c1` (centres unmarked) [ONC0004733, sodium danshensu], the “% viability” value worked out at 106.7%.
Take `CC(C(=O)O)c1ccc2c(c1)Cc1ccccc1-2` (centres unmarked) [ONC0003773, cicloprofen]: the “% viability” value is given as 135.8%.
For `COc1cc(C(=O)O)ccc1NC(=O)[C@@H]1N[C@@H](CC(C)(C)C)[C@](C#N)(c2ccc(Cl)cc2F)[C@H]1c1cccc(Cl)c1F` [ONC0005541, idasanutlin] the value was 130.7%.
With `CC1(C)CCC(C)(C)c2cc(NC(=O)c3ccc(C(=O)O)cc3)ccc21` [ONC0004789, tamibarotene] the figure was 98.3%; with `N[C@@H](Cc1cc(I)c(Oc2cc(I)c(O)c(I)c2)c(I)c1)C(=O)O` [ONC0005615, levothyroxine], 152.7%; with `CN(C)C(=S)SC(=S)N(C)C` [ONC0003360, tetramethylthiuram monosulfide], 61.8%.
For `Cc1cc(C)c(Nc2ccnc(Nc3ccc(C#N)cc3)n2)c(C)c1` [ONC0004833, dapivirine tmc120] the value was 131.1%.
In the case of `CN(c1ccc(NC(=O)Nc2ccccc2)cc1)S(=O)(=O)c1cnn(-c2ccc(F)cc2)c1` [ONC0000106, btt3033], the “% viability” value is reported as 71.15%.
Turning to `C[n+]1cc2c3c(ccc2c2ccc4cc5c(cc4c21)OCO5)OCO3` [ONC0003337, sanguinarium chloride], the “% viability” value was 90.16%.
For `C[C@@H](NC(=O)c1ncnc(N)c1Cl)c1ncc(C(=O)Nc2cc(C(F)(F)F)c(Cl)cn2)s1` [ONC0000780, tak580] the value was 67.96%.
With `Nc1ncnc2c1ncn2[C@@H]1O[C@H](CO)[C@@H](O)[C@H]1O` [ONC0000330, adenosine] the figure was 75.96%.
With `Cc1nn(-c2ccccc2)c(C)c1/C=N/N1CCN(Cc2ccccc2)CC1` [ONC0001753, sant1] the figure was 100.3%; with `O=C(c1ccc(Nc2nccc(-c3cc4ccccc4s3)n2)cc1)N1CCC(N2CCCC2)CC1` [ONC0000238, ikk16], 83.32%; with `Clc1ccc(CSC(Cn2ccnc2)c2ccc(Cl)cc2Cl)cc1` (centres unmarked) [ONC0000678, sulconazole nitrate], 120.3%.
As to `O=C1C[C@@H](c2ccc(O)cc2)Oc2cc(O)ccc21` [ONC0003300, liquiritigenin], the “% viability” value stood at 62.96%.
With `CC1(C)S[C@@H]2C(N3C(=O)[C@@H](c4ccccc4)NC3(C)C)C(=O)N2[C@H]1C(=O)O` (some centres unmarked) [ONC0000520, hetacillin potassium] the figure was 62.89%; with `O=C1Nc2ccccc2C12OCC1(CO2)COC2(OC1)C(=O)Nc1ccccc12` (centres unmarked) [ONC0002672, jw67], 79.91%; with `C=C[C@H]1C[N@@]2CC[C@H]1C[C@H]2[C@H](O)c1ccnc2ccc(OC)cc12` [ONC0003402, quinine], 78.04%.
For `O=C(/C=C/c1ccccc1)NC(NC(=S)Nc1cccc2cccnc12)C(Cl)(Cl)Cl` (centres unmarked) [ONC0001383, salubrinal] the value was 125.4%.
With `CCCN(CCC)C(=O)Cc1c(-c2ccc(Cl)cc2)nc2ccc(Cl)cn12` [ONC0004067, alpidem] the figure was 111.1%.
Consider `Fc1ccc(Cl)cc1-c1nc(Nc2ccncc2)c2nccnc2n1` [ONC0002569, sd208], for which the “% viability” value came out at 76.17%.
For `C=CC1=C(C)c2cc3[nH]c(cc4nc(cc5[nH]c(cc1n2)c(C)c5CCC(=O)O)C(CCC(=O)O)=C4C)c(C)c3C=C` [ONC0000685, protoporphyrin ix] the value was 98.29%; for `CC1CNc2c(cccc2S(=O)(=O)N[C@@H](CCCNC(=N)N)C(=O)N2CC[C@@H](C)C[C@@H]2C(=O)O)C1` (some centres unmarked) [ONC0004592, argatroban], 77.15%.
With `CN(C)CCN(Cc1ccccc1)c1ccccn1` [ONC0003240, tripelennamine citrate] the figure was 103.5%; with `COc1ccccc1N1CCN(CCN(C(=O)C2CCCCC2)c2ccccn2)CC1` [ONC0005214, way100635 maleate], 121.7%.
In the case of `CN1C(=O)CC(c2ccccc2)C1=O` (centres unmarked) [ONC0003880, phensuccimide], the “% viability” value came out at 62.12%.
For `O=C(NCCCN1CCC2(CC1)OCc1ccccc12)[C@H]1CCCN1Cc1ccccc1` [ONC0000855, banorl24] the value was 58.7%.
With `Nc1ccn([C@@H]2O[C@H](CO)[C@@H](O)C2(F)F)c(=O)n1` [ONC0001279, gemcitabine], the “% viability” value is recorded as 63.43%.
For `C[C@@H](O)[C@H]1C(=O)N2C(C(=O)[O-])=C([C@H]3CCCO3)S[C@H]12.C[C@@H](O)[C@H]1C(=O)N2C(C(=O)[O-])=C([C@H]3CCCO3)S[C@H]12.O.O.O.O.O.[Na+].[Na+]` [ONC0000335, faropenem sodium hemipentahydrate] the value was 95.52%.
`N#Cc1nn(-c2c(Cl)cc(C(F)(F)F)cc2Cl)c(N)c1[S+]([O-])C(F)(F)F` (centres unmarked) [ONC0003912, fipronil]: the “% viability” value stood at 85.63%.
As for `O=C/C=C/c1ccccc1` [ONC0003660, cinnamaldehyde], the “% viability” value is 81.58%.
With `O=C(O)C(=O)Nc1cccc(-c2nnn[nH]2)c1` [ONC0003654, acitazanolast] the figure was 75.36%; with `Cc1c(C2CCN(CCc3ccccc3)CC2)noc1-c1ccc(Cl)cc1` [ONC0001476, l741742], 80.55%.
With `CCNC(=O)c1[nH]nc(-c2cc(Cl)c(O)cc2O)c1-c1ccc(OC)cc1` [ONC0005116, ver49009] the figure was 88.78%; with `CCC(CC)n1ccc2c(C(=O)NCc3c(C)cc(C)[nH]c3=O)cc(C#N)cc21` [ONC0001917, ei1], 88.07%; with `C[C@H](NC(=O)/C(C#N)=C/c1cccc(Br)n1)c1ccccc1` [ONC0005269, wp1066], 145.9%.
In the case of `CC(C)c1ccc(NC(=O)Cn2cnc3c2c(=O)n(C)c(=O)n3C)cc1` [ONC0005248, hc030031], the “% viability” value came to 89.98%.
For `O=C(O)c1cc(O)c2c3nc4ccccc4oc-3cc(=O)c2n1` [ONC0003322, pirenoxine] the value was 84.14%.
For `CC(C)C(N)=O` [ONC0003586, isobutyramide] the value was 107%.
For `Cc1ccccc1NC(=N)Nc1ccccc1C` [ONC0000016, ditolylguanidine] the value was 74.3%; for `O=C(NCCN1CCN(c2ncccn2)CC1)C12CC3CC(CC(C3)C1)C2` [ONC0002342, adatanserin], 65.36%.
In the case of `CCOC(=O)[C@@H](C)Oc1ccc(Oc2nc3ccc(Cl)cc3o2)cc1` [ONC0001136, fenoxaproppethyl], the “% viability” value is recorded as 62.16%.
With `COc1ccncc1C(=O)NC(=O)Nc1ccc(-c2ccccc2)c(C(F)(F)F)c1` [ONC0000985, s1p1 agonist iii] the figure was 70.46%.

Source of the values: publication PMC12670160, “A drug-repurposing screen of FDA- and EMA-approved drugs identifies two NF-κB inhibitors active against eumycetoma” (Journal of Antimicrobial Chemotherapy, 2025).
